Source: PMC6858330

Molecular target: T1, BirA*-tagged Arf1p (Arf1p-BirA(R118G)-S tag) (S. cerevisiae) (UniProt P11076)
T1 sequence: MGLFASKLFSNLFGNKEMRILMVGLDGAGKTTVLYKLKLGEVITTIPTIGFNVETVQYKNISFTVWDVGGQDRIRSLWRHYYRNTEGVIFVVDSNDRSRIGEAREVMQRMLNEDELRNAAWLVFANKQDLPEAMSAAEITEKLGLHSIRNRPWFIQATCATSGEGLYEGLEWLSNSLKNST
Assay: proximity labelling; BioID in living yeast: Arf1p-BirA*-S and GFP-Vps9p; 10 μM D-biotin for 3 h; lysis in 50 mM Tris-HCl pH 8.0, 150 mM NaCl, 4 M urea; biotinylated proteins pulled down with Streptavidin agarose; anti-GFP blot

binding: binds
B1: GFP-Vps9p (protein, UniProt P54787 1-451)
chain: MTDDEKREILKEFDPFSQLEQANGNPDKDVKFKKDDPNRAAAEETNRDISAQDKGDEEPFYDFQIFIKQLQTPGADPLVKYTKSFLRNFLAQRLLWTVSEEIKLISDFKTFIYDKFTLYEPFRSLDNSKMRNAKEGMEKLIMGKLYSRCFSPSLYEILQKPLDDEHMKDLTNDDTLLEKIRHYRFISPIMLDIPDTMPNARLNKFVHLASKELGKINRFKSPRDKMVCVLNASKVIFGLLKHTKLEQNGADSFIPVLIYCILKGQVRYLVSNVNYIERFRSPDFIRGEEEYYLSSLQAALNFIMNLTERSLTIEDHEDFEEAYQRNFKQLAEEKEEEEKKKQLEIPDELQPNGTLLKPLDEVTNIVISKFNELFSPIGEPTQEEALKSEQSNKEEDVSSLIKKIEENERKDTLNTLQNMFPDMDPSLIEDVCIAKKSRIGPCVDALLSLSE

No constants are given. Whether binding was seen depends on the method and setting. Binding seen in cells or lysates may run through a third protein. A yes stands for co-enrichment or nearness to the bait. Other partners may have been found. Tags and fused reporters may be left off the sequences shown.
